Results taken from publication PMC10317969.
No constants are given. Whether binding was seen depends on the method and setting. In cells and extracts the contact can be indirect. Here binding means that the protein was enriched with, or labelled near, the bait; the list need not be complete.

By UniProt entry, the sequences of proteins in these tests, tags left out. Where a name states a change or a piece, a line headed by the entry shows the natural chain unless it says otherwise. Residues count along the entry.
UniProt Q96GS4: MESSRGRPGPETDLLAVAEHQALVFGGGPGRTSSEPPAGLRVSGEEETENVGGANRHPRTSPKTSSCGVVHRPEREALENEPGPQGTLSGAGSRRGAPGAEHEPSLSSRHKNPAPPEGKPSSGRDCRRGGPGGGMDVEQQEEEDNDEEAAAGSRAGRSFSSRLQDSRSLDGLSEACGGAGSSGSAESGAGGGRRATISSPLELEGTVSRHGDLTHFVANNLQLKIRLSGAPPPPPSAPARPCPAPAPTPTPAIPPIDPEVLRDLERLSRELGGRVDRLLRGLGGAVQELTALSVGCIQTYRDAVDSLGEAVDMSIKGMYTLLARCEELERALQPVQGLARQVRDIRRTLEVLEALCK
UniProt Q9BTU6: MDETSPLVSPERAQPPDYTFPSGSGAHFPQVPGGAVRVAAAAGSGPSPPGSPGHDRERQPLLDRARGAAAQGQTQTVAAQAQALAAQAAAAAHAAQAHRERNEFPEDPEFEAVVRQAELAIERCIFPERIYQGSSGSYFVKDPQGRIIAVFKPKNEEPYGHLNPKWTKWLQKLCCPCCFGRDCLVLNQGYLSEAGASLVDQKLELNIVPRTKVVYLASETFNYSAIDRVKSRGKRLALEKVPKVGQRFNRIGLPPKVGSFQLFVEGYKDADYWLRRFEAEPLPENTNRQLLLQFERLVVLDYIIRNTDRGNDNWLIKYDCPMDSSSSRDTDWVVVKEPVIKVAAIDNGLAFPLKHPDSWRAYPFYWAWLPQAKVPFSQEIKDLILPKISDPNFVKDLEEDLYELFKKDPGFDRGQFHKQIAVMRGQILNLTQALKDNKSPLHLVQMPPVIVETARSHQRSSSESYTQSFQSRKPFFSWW
UniProt Q15836: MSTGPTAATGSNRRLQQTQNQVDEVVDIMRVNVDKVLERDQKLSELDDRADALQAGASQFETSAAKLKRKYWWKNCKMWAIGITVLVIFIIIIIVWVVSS
UniProt P11717, residues 41-2491: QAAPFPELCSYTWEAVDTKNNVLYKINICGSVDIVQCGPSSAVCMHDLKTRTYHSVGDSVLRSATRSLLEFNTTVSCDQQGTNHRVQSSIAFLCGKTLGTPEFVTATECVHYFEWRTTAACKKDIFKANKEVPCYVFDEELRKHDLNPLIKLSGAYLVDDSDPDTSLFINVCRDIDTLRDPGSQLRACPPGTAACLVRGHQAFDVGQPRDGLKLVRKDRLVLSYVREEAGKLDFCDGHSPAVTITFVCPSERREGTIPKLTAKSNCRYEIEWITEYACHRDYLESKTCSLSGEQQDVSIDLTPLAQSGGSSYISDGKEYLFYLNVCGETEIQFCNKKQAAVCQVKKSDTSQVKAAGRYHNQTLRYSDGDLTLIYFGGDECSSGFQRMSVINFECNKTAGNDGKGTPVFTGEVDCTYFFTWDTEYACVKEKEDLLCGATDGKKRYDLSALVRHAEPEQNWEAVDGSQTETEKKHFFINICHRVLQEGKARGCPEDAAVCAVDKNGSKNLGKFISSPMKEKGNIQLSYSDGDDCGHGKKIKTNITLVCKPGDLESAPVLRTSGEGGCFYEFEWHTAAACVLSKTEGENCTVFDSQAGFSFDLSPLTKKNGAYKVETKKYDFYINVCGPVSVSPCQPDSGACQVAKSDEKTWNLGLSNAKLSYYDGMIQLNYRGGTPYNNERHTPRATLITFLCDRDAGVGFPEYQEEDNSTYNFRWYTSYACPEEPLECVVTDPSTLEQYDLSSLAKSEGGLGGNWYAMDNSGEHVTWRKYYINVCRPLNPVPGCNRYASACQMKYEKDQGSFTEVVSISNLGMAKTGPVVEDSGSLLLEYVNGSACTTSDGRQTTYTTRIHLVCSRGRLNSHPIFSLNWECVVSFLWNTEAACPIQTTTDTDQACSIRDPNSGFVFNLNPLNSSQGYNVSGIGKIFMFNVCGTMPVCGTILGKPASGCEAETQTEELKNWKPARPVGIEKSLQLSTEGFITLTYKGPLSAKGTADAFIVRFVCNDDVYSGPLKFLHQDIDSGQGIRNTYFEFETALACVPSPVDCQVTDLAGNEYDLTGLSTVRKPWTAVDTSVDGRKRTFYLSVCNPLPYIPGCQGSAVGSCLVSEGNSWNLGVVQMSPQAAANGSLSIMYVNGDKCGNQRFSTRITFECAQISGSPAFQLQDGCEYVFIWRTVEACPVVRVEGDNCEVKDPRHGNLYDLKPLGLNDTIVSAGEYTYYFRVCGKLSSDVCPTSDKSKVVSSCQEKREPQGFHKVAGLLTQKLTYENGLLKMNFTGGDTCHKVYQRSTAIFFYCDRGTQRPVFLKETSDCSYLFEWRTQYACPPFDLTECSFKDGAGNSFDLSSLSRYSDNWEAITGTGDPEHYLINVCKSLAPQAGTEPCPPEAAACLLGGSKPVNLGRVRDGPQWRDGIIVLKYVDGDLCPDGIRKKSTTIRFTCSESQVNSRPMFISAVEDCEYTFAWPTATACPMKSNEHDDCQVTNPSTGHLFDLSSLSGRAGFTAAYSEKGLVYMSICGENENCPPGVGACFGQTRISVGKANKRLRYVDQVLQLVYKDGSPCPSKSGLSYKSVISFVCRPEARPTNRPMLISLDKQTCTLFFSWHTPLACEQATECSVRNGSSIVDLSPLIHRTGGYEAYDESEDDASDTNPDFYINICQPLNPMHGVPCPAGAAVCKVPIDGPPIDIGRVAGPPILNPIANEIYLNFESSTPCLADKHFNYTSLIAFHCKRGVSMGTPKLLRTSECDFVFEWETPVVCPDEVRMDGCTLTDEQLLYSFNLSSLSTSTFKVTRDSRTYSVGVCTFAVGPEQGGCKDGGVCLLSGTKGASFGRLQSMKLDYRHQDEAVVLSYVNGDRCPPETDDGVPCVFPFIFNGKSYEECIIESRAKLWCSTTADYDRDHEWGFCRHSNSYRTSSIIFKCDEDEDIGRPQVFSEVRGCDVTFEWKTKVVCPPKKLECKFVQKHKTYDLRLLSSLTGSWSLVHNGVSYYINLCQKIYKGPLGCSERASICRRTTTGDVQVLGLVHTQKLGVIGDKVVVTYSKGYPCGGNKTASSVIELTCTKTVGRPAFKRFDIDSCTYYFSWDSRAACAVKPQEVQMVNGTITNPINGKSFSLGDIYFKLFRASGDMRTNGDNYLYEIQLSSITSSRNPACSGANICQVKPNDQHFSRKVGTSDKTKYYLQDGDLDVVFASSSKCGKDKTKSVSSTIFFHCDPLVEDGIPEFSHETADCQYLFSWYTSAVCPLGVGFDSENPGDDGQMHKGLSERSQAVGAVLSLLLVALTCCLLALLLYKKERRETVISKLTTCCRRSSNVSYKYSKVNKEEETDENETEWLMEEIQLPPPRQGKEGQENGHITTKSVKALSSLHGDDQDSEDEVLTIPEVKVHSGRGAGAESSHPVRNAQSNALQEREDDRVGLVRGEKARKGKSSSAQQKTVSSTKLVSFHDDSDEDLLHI

T1: CLN3-innHA (UniProt Q13286)
T1 sequence: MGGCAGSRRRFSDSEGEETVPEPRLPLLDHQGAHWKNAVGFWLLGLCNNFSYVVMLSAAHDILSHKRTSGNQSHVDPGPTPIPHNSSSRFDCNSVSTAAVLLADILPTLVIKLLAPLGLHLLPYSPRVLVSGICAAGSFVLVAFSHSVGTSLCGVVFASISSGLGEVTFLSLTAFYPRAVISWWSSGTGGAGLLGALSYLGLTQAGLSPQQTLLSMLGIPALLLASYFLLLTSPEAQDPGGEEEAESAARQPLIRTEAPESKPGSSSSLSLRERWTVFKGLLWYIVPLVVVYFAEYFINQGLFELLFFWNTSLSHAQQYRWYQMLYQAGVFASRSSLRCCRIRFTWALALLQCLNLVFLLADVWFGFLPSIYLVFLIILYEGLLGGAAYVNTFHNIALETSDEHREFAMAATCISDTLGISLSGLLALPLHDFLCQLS

B1: Snapin (protein, UniProt O95295 1-136)
chain: MAGAGSAAVSGAGTPVAGPTGRDLFAEGLLEFLRPAVQQLDSHVHAVRESQVELREQIDNLATELCRINEDQKVALDLDPYVKKLLNARRRVVLVNNILQNAQERLRRLNHSVAKETARRRAMLDSGIYPPGSPGK

biological target: T1, CLN3-innHA; assay: affinity purification with mass spectrometry; anti-HA immunoprecipitation from ARPE19-pLVX-CLN3innHA cells induced 24 h with 1 ug/ml doxycycline, fed and prolonged starvation (16 h serum+glutamine starvation); cells cross-linked with 1 mg/mL DSP before lysis in RIPA buffer; label-free MS, hits enriched against cells not expressing the HA tag

binding, binds:
Lyspersin (from UniProt Q96GS4)
PI4K2A (from UniProt Q9BTU6 1-479) (enzyme)
VAMP3 (from UniProt Q15836 1-100)
VPS26 (human (endogenous in ARPE19))
cation independent-mannose 6-phosphate receptor (CI-M6PR) (from UniProt P11717 41-2491)
B1
